For experiment [1], the target named is DnaK, wild type (E. coli) (UniProt P0A6Y8). The experiment in a line: co-sedimentation; G6PDH50 aggregates (1 μM) incubated 10 min at 30 °C in refolding buffer with DnaJ, 3.5 μM wt DnaK or variant, with or without 5 μM wt or mutant ClpB, 3 mM ATP with regenerating system, no GrpE; 122,000 x g, 40 min, 4 °C; pellets on SDS-PAGE or NuPAGE, densitometry, controls with native G6PDH subtracted; both purified.

The chains behind the UniProt entries cited, without tags or fusion partners. Where a name states a change or a piece, a line headed by the entry shows the natural chain unless it says otherwise.
UniProt P0A6Y8: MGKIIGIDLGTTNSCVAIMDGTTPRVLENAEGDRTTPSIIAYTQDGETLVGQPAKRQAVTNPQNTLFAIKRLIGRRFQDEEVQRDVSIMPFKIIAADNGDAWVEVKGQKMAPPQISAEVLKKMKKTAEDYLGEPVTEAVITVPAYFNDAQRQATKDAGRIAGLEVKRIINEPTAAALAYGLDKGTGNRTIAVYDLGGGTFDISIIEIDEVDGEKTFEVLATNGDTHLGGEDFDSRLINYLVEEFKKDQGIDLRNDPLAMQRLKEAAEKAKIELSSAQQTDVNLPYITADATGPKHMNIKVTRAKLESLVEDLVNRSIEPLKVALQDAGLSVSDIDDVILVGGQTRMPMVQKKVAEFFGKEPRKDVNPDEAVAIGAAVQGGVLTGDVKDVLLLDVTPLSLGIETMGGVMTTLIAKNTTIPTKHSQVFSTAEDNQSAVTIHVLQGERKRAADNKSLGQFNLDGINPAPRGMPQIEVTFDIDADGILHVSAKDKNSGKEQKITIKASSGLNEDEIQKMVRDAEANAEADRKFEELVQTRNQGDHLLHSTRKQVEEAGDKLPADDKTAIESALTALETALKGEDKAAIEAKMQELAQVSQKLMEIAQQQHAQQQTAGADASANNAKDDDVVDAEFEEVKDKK
UniProt P63284: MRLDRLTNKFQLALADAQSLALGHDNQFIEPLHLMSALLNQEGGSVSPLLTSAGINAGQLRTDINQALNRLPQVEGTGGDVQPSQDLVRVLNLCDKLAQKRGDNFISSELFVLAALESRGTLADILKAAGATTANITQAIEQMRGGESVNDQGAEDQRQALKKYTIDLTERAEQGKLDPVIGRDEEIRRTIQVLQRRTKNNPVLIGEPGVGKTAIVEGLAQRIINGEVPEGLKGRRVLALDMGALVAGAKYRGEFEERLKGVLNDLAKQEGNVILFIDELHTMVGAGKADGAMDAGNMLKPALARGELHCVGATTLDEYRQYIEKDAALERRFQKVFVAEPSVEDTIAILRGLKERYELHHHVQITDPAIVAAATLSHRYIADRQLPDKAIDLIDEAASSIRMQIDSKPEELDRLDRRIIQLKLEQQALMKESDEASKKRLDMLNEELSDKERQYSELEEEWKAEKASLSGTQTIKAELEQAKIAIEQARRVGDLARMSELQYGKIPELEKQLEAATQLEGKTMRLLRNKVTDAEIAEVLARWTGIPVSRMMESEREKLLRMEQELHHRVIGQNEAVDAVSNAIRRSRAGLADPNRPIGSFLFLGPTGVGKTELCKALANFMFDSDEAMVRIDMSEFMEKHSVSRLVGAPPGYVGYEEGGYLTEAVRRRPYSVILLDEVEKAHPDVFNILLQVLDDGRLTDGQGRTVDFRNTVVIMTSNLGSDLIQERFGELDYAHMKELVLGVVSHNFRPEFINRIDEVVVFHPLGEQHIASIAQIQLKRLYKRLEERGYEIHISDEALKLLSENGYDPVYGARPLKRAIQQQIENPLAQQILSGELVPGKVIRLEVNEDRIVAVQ

Experiment [2] has the same target. Kind of experiment: co-sedimentation; 1 µM G6PDH50 aggregates, 3 mM ATP, 0.7 µM DnaJ, 3.5 µM DnaK and 5 µM ΔN/ΔM-ClpB, 10 min in refolding buffer, centrifuged; pellets on 4-12% Bis-Tris NuPAGE; ClpB in the pellet compared with and without DnaK; native G6PDH as control; both purified.

These are yes or no findings as the source states them, for the method shown. Some entries that bind do so weakly or less than the wild type.

“ClpB heterohexamers of wt and ΔM-ClpB subunits (from UniProt P63284 1-857; P63284 1-857) (complex)”: the binding result in experiment [1] was “binds”.
Turning to “ΔN/ΔM-ClpB (ClpB Δ(1–142;410–520)) (from UniProt P63284 143-857) (domain or fragment)”, the binding result in experiment [2] was “no binding (tested: 5 µM ΔN/ΔM-ClpB, 3.5 µM DnaK)”.

The values above are taken from PMC5895705.
